In PMC10753161:
Results are given in words; binding and its absence hold for the method and conditions named. In cells and extracts the contact can be indirect. Some binding calls cover weakened binding; strength is not graded here.

Amino acid sequences for entries named in this document (tags omitted).
UniProt O81445: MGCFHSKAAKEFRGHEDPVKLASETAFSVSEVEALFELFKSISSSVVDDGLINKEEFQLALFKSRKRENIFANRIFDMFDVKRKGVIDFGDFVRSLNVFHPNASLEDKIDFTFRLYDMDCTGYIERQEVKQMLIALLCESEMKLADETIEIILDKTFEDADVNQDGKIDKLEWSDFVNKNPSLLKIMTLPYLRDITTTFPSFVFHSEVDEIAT

Molecular target: T1, AtCIPK23 (Arabidopsis (from the prefix At)) (UniProt Q93VD3)
T1 sequence: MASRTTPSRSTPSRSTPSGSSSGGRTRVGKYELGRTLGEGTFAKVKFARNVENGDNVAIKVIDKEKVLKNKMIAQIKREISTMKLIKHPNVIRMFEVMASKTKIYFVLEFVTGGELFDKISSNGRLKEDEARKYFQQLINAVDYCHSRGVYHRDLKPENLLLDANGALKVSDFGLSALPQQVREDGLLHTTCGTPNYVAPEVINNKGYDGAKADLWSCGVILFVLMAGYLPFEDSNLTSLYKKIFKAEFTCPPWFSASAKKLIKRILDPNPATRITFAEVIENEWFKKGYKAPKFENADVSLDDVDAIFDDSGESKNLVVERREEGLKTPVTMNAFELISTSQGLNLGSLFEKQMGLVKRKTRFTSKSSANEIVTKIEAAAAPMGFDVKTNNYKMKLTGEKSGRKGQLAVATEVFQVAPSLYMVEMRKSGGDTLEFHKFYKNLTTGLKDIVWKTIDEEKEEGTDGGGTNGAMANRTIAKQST
Assay: split reporter; luciferase complementation: cLUC and nLUC fusions expressed in Nicotiana benthamiana leaves by Agrobacterium GV3101, 3 days; luminescence by CCD camera and dual luciferase reporter kit (LUC/REN)

Substance: AtCBL1 (from UniProt O81445 1-213)
- binding: binds
